The record followed here is article PMC4977272.

Sequences of proteins named here, by UniProt entry; tags and fusion partners are left off.
UniProt Q9D0L8: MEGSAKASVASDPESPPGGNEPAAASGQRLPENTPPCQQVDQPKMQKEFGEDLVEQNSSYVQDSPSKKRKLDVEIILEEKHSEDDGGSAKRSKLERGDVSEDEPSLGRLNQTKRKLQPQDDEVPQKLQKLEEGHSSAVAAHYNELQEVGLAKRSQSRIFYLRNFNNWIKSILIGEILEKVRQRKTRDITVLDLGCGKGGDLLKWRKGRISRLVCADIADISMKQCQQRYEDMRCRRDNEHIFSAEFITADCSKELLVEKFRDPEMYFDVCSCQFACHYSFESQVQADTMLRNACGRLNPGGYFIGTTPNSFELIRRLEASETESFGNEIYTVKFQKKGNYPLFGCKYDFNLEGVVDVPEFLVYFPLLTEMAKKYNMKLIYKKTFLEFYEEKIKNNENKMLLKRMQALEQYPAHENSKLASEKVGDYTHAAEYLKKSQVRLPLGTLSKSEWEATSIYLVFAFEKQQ
UniProt Q9CQY2: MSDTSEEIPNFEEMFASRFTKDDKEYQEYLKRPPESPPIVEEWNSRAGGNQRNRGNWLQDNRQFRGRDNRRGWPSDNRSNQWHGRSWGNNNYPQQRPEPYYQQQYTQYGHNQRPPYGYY

Experiment [1] has as its target RNMT (RNA guanine-7 methyltransferase) (mouse (endogenous in ESCs)) (UniProt Q9D0L8). Kind of experiment: co-IP; reciprocal immunoprecipitations of endogenous RNMT and RAM from ESC extracts, western blot (Figure S2C). Background: Immunoblotting shows a protein as a band on a membrane.
Experiment [2] has as its target RAM (RNMT-activating miniprotein) (mouse (endogenous in ESCs)) (UniProt Q9CQY2). The experiment is described as above.

No constants are given. Whether binding was seen depends on the method and setting. In cells and extracts the contact can be indirect. Some results given as binding are weak or reduced against the parent protein; the word gives no strength.

Regarding “RAM (RNMT-activating miniprotein) (from UniProt Q9CQY2 1-119)”, in experiment [1], the binding result was “binds”.
In the case of “RNMT (RNA guanine-7 methyltransferase) (from UniProt Q9D0L8 1-465) (enzyme)”, the binding result in experiment [2] was “binds”.
